Measurements: patent US11337988B2, “Use of ouabain antagonists to inhibit viral infection” (priority 2018, dated 2022)
Some of these results come from one statement about several compounds together.

Key:
[1] = system: A549 cells; assay: Dextran assay: macropinocytic uptake of Dextran-AF568 in RSV-infected A549 cells; details: A549 pre-treated overnight, wt RSV MOI=5, 5 h p.i., vesicles larger than 1.0 μm^3
[2] = system: A549 cells; details: 24 h post treatment, ouabain 25 nM, PST2238 20 μM

SMILES	RSV-induced macropinosomes compared to mock-treated, RSV-infected cells [1]	reduction in cell viability [2]
C[C@]12CC[C@H](O)C[C@H]1CC[C@@H]1[C@@H]2CC[C@]2(C)[C@@](O)(c3ccoc3)CC[C@]12O [PST2238, (3β,5β,14β)-21,23-Epoxy-24-norchola-20,22-diene-3,14,17-triol]	less than 50%	–
C[C@@H]1O[C@@H](O[C@H]2C[C@@H](O)[C@]3(CO)[C@@H]4[C@@H](CC[C@]3(O)C2)[C@@]2(O)CCC(C3=CC(=O)OC3)[C@@]2(C)C[C@@H]4O)[C@H](O)[C@H](O)[C@H]1O (stereo partly drawn) [ouabain, (1β,3β,5β,11α)-3-[(6-Deoxy-α-L-mannopyranosyl)oxy]-1,5,11,14,19-pentahydroxycard-20(22)-enolide]	less than 50%	less than 20%
